In publication PMC3039813:
No constants are given. Whether binding was seen depends on the method and setting. Binding seen in cells or lysates may run through a third protein. Some results given as binding are weak or reduced against the parent protein; the word gives no strength.

Target: Mcl-1 (human (endogenous in JVM-2 and Granta 519)), Q07820
Test: co-IP; lysates of JVM-2 and Granta 519 cells treated with GUT-70 for 24 h; immunoprecipitation with anti-Mcl-1 (Santa Cruz Biotechnology), western blot for Noxa
Conditions: remark: other sources report otherwise

- binding: binds
B1: Noxa, Q13794 1-54 (protein)
chain: MPGKKARKNAQPSPARAPAELEVECATQLRRFGDKLNFRQKLLNLISKLFCSGT
